Experimental findings from patent US20250073347A1 are described below.

By UniProt entry, the sequences of proteins in these tests, tags left out. Where a name states a change or a piece, a line headed by the entry shows the natural chain unless it says otherwise. Chains listed by the source or under a name are the forms on record and can include a tag or linker.
human Claudin18.2 on cells (P56856, form named): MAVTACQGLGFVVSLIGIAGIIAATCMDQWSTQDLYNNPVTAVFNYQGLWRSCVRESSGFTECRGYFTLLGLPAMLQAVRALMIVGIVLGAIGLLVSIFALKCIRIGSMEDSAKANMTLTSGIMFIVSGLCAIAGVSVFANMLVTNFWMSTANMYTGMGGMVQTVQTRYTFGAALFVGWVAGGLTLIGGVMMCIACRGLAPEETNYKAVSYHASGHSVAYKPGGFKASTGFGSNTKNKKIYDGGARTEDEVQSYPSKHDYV

Assay [1] has as its target human Claudin18.2 on cells (human) (UniProt P56856). Description: flow cytometry on DANG-hCLDN18.2 cells, relative MFI (fold). In general terms: Flow cytometry measures light scatter and fluorescence of single cells or particles in a stream.
Assay [2] has the same target. Description: flow cytometry on DAN-G-hCLDN18.2 cells.

These are yes or no findings as the source states them, for the method shown.

B1: IEX019-06 (SYN-IgG1-Ex) (antibody, V domains shown)
VH: QVQLVQSGAEVKKPGASVKVSCQASGYRFSNFVIHWVRQAPGQRFEWMGWINPYNGNKEFSAKFQDRVTFTADTSANTAYMELRSLRSADTAVYYCARVGPYSWDDSPQDNYYMDVWGKGTTVIVSS
VL: EIVLTQSPGTLSLSPGERATFSCRSSHSIRSRRVAWYQHKPGQAPRLVIHGVSNRASGISDRFSGSGSGTDFTLTITRVEPEDFALYYCQVYGASSYTFGQGTKLERKR
As for B1, the binding entry in assay [1] is given as “no binding (tested: 100 nM)”; in assay [2] it was “no binding”.
